Sequences and labels used below:
B1: ZNF609 (protein, UniProt O15014 1-1411)
chain: MSLSSGASGGKGVDANPVETYDSGDEWDIGVGNLIIDLDADLEKDQQKLEMSGSKEVGIPAPNAVATLPDNIKFVTPVPGPQGKEGKSKSKRSKSGKDTSKPTPGTSLFTPSEGAASKKEVQGRSGDGANAGGLVAAIAPKGSEKAAKASRSVAGSKKEKENSSSKSKKERSEGVGTCSEKDPGVLQPVPLGGRGGQYDGSAGVDTGAVEPLGSIAIEPGAALNPLGTKPEPEEGENECRLLKKVKSEKMESPVSTPAVLPIHLLVPVVNNDISSPCEQIMVRTRSVGVNTCDVALATEPECLGPCEPGTSVNLEGIVWQETEDGMLVVNVTWRNKTYVGTLLDCTRHDWAPPRFCDSPTSDLEMRNGRGRGKRMRPNSNTPVNETATASDSKGTSNSSKTRAGANSKGRRGSQNSSEHRPPASSTSEDVKASPSSANKRKNKPLSDMELNSSSEDSKGSKRVRTNSMGSATGPLPGTKVEPTVLDRNCPSPVLIDCPHPNCNKKYKHINGLKYHQAHAHTDDDSKPEADGDSEYGEEPILHADLGSCNGASVSQKGSLSPARSATPKVRLVEPHSPSPSSKFSTKGLCKKKLSGEGDTDLGALSNDGSDDGPSVMDETSNDAFDSLERKCMEKEKCKKPSSLKPEKIPSKSLKSARPIAPAIPPQQIYTFQTATFTAASPGSSSGLTATVAQAMPNSPQLKPIQPKPTVMGEPFTVNPALTPAKDKKKKDKKKKESSKELESPLTPGKVCRAEEGKSPFRESSGDGMKMEGLLNGSSDPHQSRLASIKAEADKIYSFTDNAPSPSIGGSSRLENTTPTQPLTPLHVVTQNGAEASSVKTNSPAYSDISDAGEDGEGKVDSVKSKDAEQLVKEGAKKTLFPPQPQSKDSPYYQGFESYYSPSYAQSSPGALNPSSQAGVESQALKTKRDEEPESIEGKVKNDICEEKKPELSSSSQQPSVIQQRPNMYMQSLYYNQYAYVPPYGYSDQSYHTHLLSTNTAYRQQYEEQQKRQSLEQQQRGVDKKAEMGLKEREAALKEEWKQKPSIPPTLTKAPSLTDLVKSGPGKAKEPGADPAKSVIIPKLDDSSKLPGQAPEGLKVKLSDASHLSKEASEAKTGAECGRQAEMDPILWYRQEAEPRMWTYVYPAKYSDIKSEDERWKEERDRKLKEERSRSKDSVPKEDGKESTSSDCKLPTSEESRLGSKEPRPSVHVPVSSPLTQHQSYIPYMHGYSYSQSYDPNHPSYRSMPAVMMQNYPGSYLPSSYSFSPYGSKVSGGEDADKARASPSVTCKSSSESKALDILQQHASHYKSKSPTISDKTSQERDRGGCGVVGGGGSCSSVGGASGGERSVDRPRTSPSQRLMSTHHHHHHLGYSLLPAQYNLPYAAGLSSTAIVASQQGSTPSLYPPPRR
B2: ZNF655 (protein, UniProt Q8N720 1-491)
chain: MEEIPAQEAAGSPRVQFQSLETQSECLSPEPQFVQDTDMEQGLTGDGETREENKLLIPKQKISEEVHSYKVRVGRLKHDITQVPETREVYKSEDRLERLQEILRKFLYLEREFRQITISKETFTSEKNNECHEPEKSFSLDSTIDADQRVLRIQNTDDNDKYDMSFNQNSASGKHEHLNLTEDFQSSECKESLMDLSHLNKWESIPNTEKSYKCDVCGKIFHQSSALTRHQRIHTREKPYKCKECEKSFSQSSSLSRHKRIHTREKPYKCEASDKSCEASDKSCSPSSGIIQHKKIHTRAKSYKCSSCERVFSRSVHLTQHQKIHKEMPCKCTVCGSDFCHTSYLLEHQRVHHEEKAYEYDEYGLAYIKQQGIHFREKPYTCSECGKDFRLNSHLIQHQRIHTGEKAHECNECGKAFSQTSCLIQHHKMHRKEKSYECNEYEGSFSHSSDLILQQEVLTRQKAFDCDVWEKNSSQRAHLVQHQSIHTKENS
B3: ZEB1 (protein, UniProt P37275 1-1124)
chain: MADGPRCKRRKQANPRRNNVTNYNTVVETNSDSDDEDKLHIVEEESVTDAADCEGVPEDDLPTDQTVLPGRSSEREGNAKNCWEDDRKEGQEILGPEAQADEAGCTVKDDECESDAENEQNHDPNVEEFLQQQDTAVIFPEAPEEDQRQGTPEASGHDENGTPDAFSQLLTCPYCDRGYKRFTSLKEHIKYRHEKNEDNFSCSLCSYTFAYRTQLERHMTSHKSGRDQRHVTQSGCNRKFKCTECGKAFKYKHHLKEHLRIHSGEKPYECPNCKKRFSHSGSYSSHISSKKCISLIPVNGRPRTGLKTSQCSSPSLSASPGSPTRPQIRQKIENKPLQEQLSVNQIKTEPVDYEFKPIVVASGINCSTPLQNGVFTGGGPLQATSSPQGMVQAVVLPTVGLVSPISINLSDIQNVLKVAVDGNVIRQVLENNQANLASKEQETINASPIQQGGHSVISAISLPLVDQDGTTKIIINYSLEQPSQLQVVPQNLKKENPVATNSCKSEKLPEDLTVKSEKDKSFEGGVNDSTCLLCDDCPGDINALPELKHYDLKQPTQPPPLPAAEAEKPESSVSSATGDGNLSPSQPPLKNLLSLLKAYYALNAQPSAEELSKIADSVNLPLDVVKKWFEKMQAGQISVQSSEPSSPEPGKVNIPAKNNDQPQSANANEPQDSTVNLQSPLKMTNSPVLPVGSTTNGSRSSTPSPSPLNLSSSRNTQGYLYTAEGAQEEPQVEPLDLSLPKQQGELLERSTITSVYQNSVYSVQEEPLNLSCAKKEPQKDSCVTDSEPVVNVIPPSANPINIAIPTVTAQLPTIVAIADQNSVPCLRALAANKQTILIPQVAYTYSTTVSPAVQEPPLKVIQPNGNQDERQDTSSEGVSNVEDQNDSDSTPPKKKMRKTENGMYACDLCDKIFQKSSSLLRHKYEHTGKRPHECGICKKAFKHKHHLIEHMRLHSGEKPYQCDKCGKRFSHSGSYSQHMNHRYSYCKREAEERDSTEQEEAGPEILSNEHVGARASPSQGDSDERESLTREEDEDSEKEEEEEDKEMEELQEEKECEKPQGDEEEEEEEEEVEEEEVEEAENEGEEAKTEGLMKDDRAESQASSLGQKVGESSEQVSEEKTNEA
B4: ICE2 (protein, UniProt Q659A1 1-982)
chain: MSSKMVISEPGLNWDISPKNGLKTFFSRENYKDHSMAPSLKELRVLSNRRIGENLNASASSVENEPAVSSATQAKEKVKTTIGMVLLPKPRVPYPRFSRFSQREQRSYVDLLVKYAKIPANSKAVGINKNDYLQYLDMKKHVNEEVTEFLKFLQNSAKKCAQDYNMLSDDARLFTEKILRACIEQVKKYSEFYTLHEVTSLMGFFPFRVEMGLKLEKTLLALGSVKYVKTVFPSMPIKLQLSKDDIATIETSEQTAEAMHYDISKDPNAEKLVSRYHPQIALTSQSLFTLLNNHGPTYKEQWEIPVCIQVIPVAGSKPVKVIYINSPLPQKKMTMRERNQIFHEVPLKFMMSKNTSVPVSAVFMDKPEEFISEMDMSCEVNECRKIESLENLYLDFDDDVTELETFGVTTTKVSKSPSPASTSTVPNMTDAPTAPKAGTTTVAPSAPDISANSRSLSQILMEQLQKEKQLVTGMDGGPEECKNKDDQGFESCEKVSNSDKPLIQDSDLKTSDALQLENSQEIETSNKNDMTIDILHADGERPNVLENLDNSKEKTVGSEAAKTEDTVLCSSDTDEECLIIDTECKNNSDGKTAVVGSNLSSRPASPNSSSGQASVGNQTNTACSPEESCVLKKPIKRVYKKFDPVGEILKMQDELLKPISRKVPELPLMNLENSKQPSVSEQLSGPSDSSSWPKSGWPSAFQKPKGRLPYELQDYVEDTSEYLAPQEGNFVYKLFSLQDLLLLVRCSVQRIETRPRSKKRKKIRRQFPVYVLPKVEYQACYGVEALTESELCRLWTESLLHSNSSFYVGHIDAFTSKLFLLEEITSEELKEKLSALKISNLFNILQHILKKLSSLQEGSYLLSHAAEDSSLLIYKASDGKVTRTAYNLYKTHCGLPGVPSSLSVPWVPLDPSLLLPYHIHHGRIPCTFPPKSLDTTTQQKIGGTRMPTRSHRNPVSMETKSSCLPAQQVETEGVAPHKRKIT
B5: ZNF687 (protein, UniProt Q8N1G0 1-1237)
chain: MGDMKTPDFDDLLAAFDIPDIDANEAIHSGPEENEGPGGPGKPEPGVGSESEDTAAASAGDGPGVPAQASDHGLPPPDISVVSVIVKNTVCPEQSEALAGGSAGDGAQAAGVTKEGPVGPHRMQNGFGSPEPSLPGTPHSPAPPSGGTWKEKGMEGKTPLDLFAHFGPEPGDHSDPLPPSAPSPTREGALTPPPFPSSFELAQENGPGMQPPVSSPPLGALKQESCSPHHPQVLAQQGSGSSPKATDIPASASPPPVAGVPFFKQSPGHQSPLASPKVPVCQPLKEEDDDEGPVDKSSPGSPQSPSSGAEAADEDSNDSPASSSSRPLKVRIKTIKTSCGNITRTVTQVPSDPDPPAPLAEGAFLAEASLLKLSPATPTSEGPKVVSVQLGDGTRLKGTVLPVATIQNASTAMLMAASVARKAVVLPGGTATSPKMIAKNVLGLVPQALPKADGRAGLGTGGQKVNGASVVMVQPSKTATGPSTGGGTVISRTQSSLVEAFNKILNSKNLLPAYRPNLSPPAEAGLALPPTGYRCLECGDAFSLEKSLARHYDRRSMRIEVTCNHCARRLVFFNKCSLLLHAREHKDKGLVMQCSHLVMRPVALDQMVGQPDITPLLPVAVPPVSGPLALPALGKGEGAITSSAITTVAAEAPVLPLSTEPPAAPATSAYTCFRCLECKEQCRDKAGMAAHFQQLGPPAPGATSNVCPTCPMMLPNRCSFSAHQRMHKNRPPHVCPECGGNFLQANFQTHLREACLHVSRRVGYRCPSCSVVFGGVNSIKSHIQTSHCEVFHKCPICPMAFKSGPSAHAHLYSQHPSFQTQQAKLIYKCAMCDTVFTHKPLLSSHFDQHLLPQRVSVFKCPSCPLLFAQKRTMLEHLKNTHQSGRLEETAGKGAGGALLTPKTEPEELAVSQGGAAPATEESSSSSEEEEVPSSPEPPRPAKRPRRELGSKGLKGGGGGPGGWTCGLCHSWFPERDEYVAHMKKEHGKSVKKFPCRLCERSFCSAPSLRRHVRVNHEGIKRVYPCRYCTEGKRTFSSRLILEKHVQVRHGLQLGAQSPGRGTTLARGSSARAQGPGRKRRQSSDSCSEEPDSTTPPAKSPRGGPGSGGHGPLRYRSSSSTEQSLMMGLRVEDGAQQCLDCGLCFASPGSLSRHRFISHKKRRGVGKASALGLGDGEEEAPPSRSDPDGGDSPLPASGGPLTCKVCGKSCDSPLNLKTHFRTHGMAFIRARQGAVGDN

Amino acid sequences for entries named in this document (tags omitted). A change or cut given only in a name is not applied to a line headed by its entry. Residues count along the entry.
UniProt Q9NVM9, residues 1-648: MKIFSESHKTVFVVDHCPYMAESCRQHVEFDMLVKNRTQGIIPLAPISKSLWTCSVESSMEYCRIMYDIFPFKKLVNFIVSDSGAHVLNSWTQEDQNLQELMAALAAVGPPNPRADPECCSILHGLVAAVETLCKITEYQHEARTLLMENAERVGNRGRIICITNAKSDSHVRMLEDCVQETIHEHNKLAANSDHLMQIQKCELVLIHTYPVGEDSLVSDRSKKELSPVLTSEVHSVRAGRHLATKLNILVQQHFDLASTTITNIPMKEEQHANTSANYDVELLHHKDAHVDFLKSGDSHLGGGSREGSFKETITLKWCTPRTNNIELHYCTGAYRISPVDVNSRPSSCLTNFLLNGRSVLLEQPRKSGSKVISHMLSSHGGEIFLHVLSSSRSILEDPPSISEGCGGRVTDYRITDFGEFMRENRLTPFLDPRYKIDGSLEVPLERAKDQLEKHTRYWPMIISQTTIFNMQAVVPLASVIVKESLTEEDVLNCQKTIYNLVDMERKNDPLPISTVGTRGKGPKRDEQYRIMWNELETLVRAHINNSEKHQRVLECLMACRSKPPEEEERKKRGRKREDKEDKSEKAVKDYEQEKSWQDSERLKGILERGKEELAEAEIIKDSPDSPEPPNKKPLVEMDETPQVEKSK
UniProt Q9NVR2: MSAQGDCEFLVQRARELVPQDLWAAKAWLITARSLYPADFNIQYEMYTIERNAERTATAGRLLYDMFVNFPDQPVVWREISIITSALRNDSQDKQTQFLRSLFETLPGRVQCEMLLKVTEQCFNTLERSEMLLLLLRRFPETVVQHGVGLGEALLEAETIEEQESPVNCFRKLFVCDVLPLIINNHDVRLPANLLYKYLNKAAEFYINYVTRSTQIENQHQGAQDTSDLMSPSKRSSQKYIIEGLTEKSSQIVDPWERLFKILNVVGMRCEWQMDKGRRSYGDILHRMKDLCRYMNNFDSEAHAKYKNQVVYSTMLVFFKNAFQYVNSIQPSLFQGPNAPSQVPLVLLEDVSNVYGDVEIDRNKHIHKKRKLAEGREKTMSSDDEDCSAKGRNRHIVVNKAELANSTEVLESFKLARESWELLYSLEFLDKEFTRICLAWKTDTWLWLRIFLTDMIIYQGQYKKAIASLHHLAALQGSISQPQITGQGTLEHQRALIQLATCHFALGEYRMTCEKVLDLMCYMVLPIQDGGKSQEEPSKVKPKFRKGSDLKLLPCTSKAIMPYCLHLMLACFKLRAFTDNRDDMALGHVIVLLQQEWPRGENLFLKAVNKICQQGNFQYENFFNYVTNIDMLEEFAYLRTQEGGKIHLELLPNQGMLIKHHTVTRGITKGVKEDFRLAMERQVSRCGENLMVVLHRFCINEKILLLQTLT

Results on five molecules are retold here after doi:10.1101/2024.01.24.576984.

Results are given in words; binding and its absence hold for the method and conditions named. Binding seen in cells or lysates may run through a third protein. A yes stands for co-enrichment or nearness to the bait. Other partners may have been found.

The first assay addresses 2SC-INTS13ΔC (human) (UniProt Q9NVM9). The assay is described as follows: affinity purification with mass spectrometry.
As for B1, the binding result is “binds”.
On to B2, for which the binding entry was “binds”.
On to B3, for which the binding entry was “binds”.
Turning to B4, the binding entry is recorded as “binds”.

The next assay concerns the target INTS10-C2S (human) (UniProt Q9NVR2). Put plainly: affinity purification with mass spectrometry.
B1: the binding result is listed as “binds”.
Turning to B2, the binding result is on record as “binds”.
Same read-out and setting: the entry for B5 is “binds”.
Take B4: the binding entry is on record as “binds”.
